## Percent effect of library compounds

Protein sequences, listed by entry. Tags and fused reporters are not part of them.
UniProt P9WPC5, whole entry: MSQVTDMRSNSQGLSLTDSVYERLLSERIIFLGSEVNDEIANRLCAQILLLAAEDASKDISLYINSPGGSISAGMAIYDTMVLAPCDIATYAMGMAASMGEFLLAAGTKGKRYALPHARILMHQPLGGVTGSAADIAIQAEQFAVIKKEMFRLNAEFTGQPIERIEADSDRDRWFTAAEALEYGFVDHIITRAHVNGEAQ
UniProt P9WPC3, whole entry partner: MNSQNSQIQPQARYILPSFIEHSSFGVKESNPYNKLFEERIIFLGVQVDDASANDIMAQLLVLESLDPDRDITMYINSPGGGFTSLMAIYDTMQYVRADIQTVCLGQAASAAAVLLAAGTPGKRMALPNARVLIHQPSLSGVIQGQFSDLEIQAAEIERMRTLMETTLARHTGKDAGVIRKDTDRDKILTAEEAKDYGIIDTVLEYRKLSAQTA

From ChEMBL document CHEMBL3988442, “University of Dundee, Small-Polar-MMV Screening Library” (2021).

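Protease assay of ClpP1P2, read by the AMC dye that it sets free. Target: ClpP1P2, Mycobacterium tuberculosis (UniProt P9WPC5 and UniProt P9WPC3). Concentration: 50 µM. Direction is inferred from only a few compounds that gave an IC50; most scored high, so higher reads as stronger inhibition. Most other retested compounds had strongly negative values. About 69,000 compounds were tested under these conditions; 0.015% (about 10) showed 50% or more at least once.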

Results are given as percent effect. The record does not define 0% and 100%; most values in the screen are far below 50% and negative numbers occur (in some assays of this library far below -100). Compounds were drawn at random from those tested, without regard to their results.

- COCC1(NC(=O)C(c2ccc(F)cc2)N(C)C)CCCC1 (stereo unspecified) : 11.76%
- CCCN1CCC(Nc2cc(-c3ccccc3)ccc2OC)CC1 : -14.1%
- CCc1[nH]ncc1C(=O)N1CCCN(Cc2cnn(C(C)C)c2)CC1 : 24.47%
- O=C1CO[C@@H]2CN(C3CCOCC3)C[C@H]2N1Cc1ccncc1 : -6.269%
- CCn1nc(CC(C)C)cc1C(=O)N1C[C@H](O)[C@@H](N2CCCCC2)C1 : 2.373%
- COc1cc(OC)cc(C(=O)N(C)Cc2nnc3ccccn23)c1 : -38.18%
- CCC(CC)C(=O)N1CCN(Cc2cc(=O)c3ccccc3[nH]2)CC1 : -13.03%
- Cc1nc(C)c(-c2nnc(SCC(=O)O)n2C(C)c2ccccc2)o1 (stereo unspecified) : -4.441%
- NC(=O)C1CCN(CCc2ccc(NC(=O)C3CCC3)cc2)CC1 : 3.392%
- CCn1ncc2c1CCCC2NCc1cc(OC)cc(OC)c1 (stereo unspecified) : -29.14%
- Cn1ccc(CN2CCCC23CCN(Cc2ccccc2F)CC3)n1 : -15.57%
- O=C(COc1cccc(F)c1)N1CCCCC1c1ccn2ccnc2n1 (stereo unspecified) : -16.8%
- Cc1ccc(NC2CCN(C(=O)c3ccnc(N(C)C)c3)CC2)nn1 : -6.634%
- CC(C)c1nnc(NCc2ccsc2)o1 : -0.5203%
- CC(CNC(=O)c1cnccn1)Oc1ccc(F)cc1 (stereo unspecified) : 6.516%
- O=C(NCc1csc(Br)c1)c1ccncc1 : 6.043%
- COc1ccc(CNC(=O)NC2CCC(O)CC2)c(C(F)(F)F)c1 (stereo unspecified) : -10.81%
- O=C(Nc1cc(C(F)(F)F)c[nH]c1=O)N1CCCSCC1 : -3.31%
- CCNc1ncc(CN2C[C@H]3CC[C@@H]2CN(C(=O)C2CCC2)C3)cn1 : 4.887%
- c1cncc(NCCNC2CSCCSC2)c1 : 3.523%
- CNC(=O)[C@@H]1CC[C@@H]2[C@@H](CCN2Cc2cn(C)c3ccccc23)O1 : -4.899%
- O=C1CC2(CCCCN2C(=O)c2ccoc2)CN1Cc1ccccc1 (stereo unspecified) : -9.055%
- Cc1ccnc(NC(=O)CSCc2cccnc2)c1 : -6.873%
- O=C(Nc1cc(-c2ccccc2)on1)N1CC[C@H](O)C1 : -2.661%
- Cc1ccc(C(=O)NS(=O)(=O)c2ccccc2Br)c(=O)[nH]1 : -26.32%
- O=C1CCC2(CCN(c3ncc(F)cn3)CC2)N1CCN1CCCC1 : -12.98%
- O=C(NCc1ccncc1)N(Cc1ccccc1F)C1CC1 : -8.711%
- Cc1ccccc1SC1CCN(C(=O)[C@H]2[C@@H]3CNC[C@@H]32)CC1 : -1.54%
- N#CCCN(C(=O)CN1CCCC1c1cccs1)c1ccccc1F (stereo unspecified) : -32.1%
- COc1cccc(C2CN(CCc3ccncc3)CCO2)c1 (stereo unspecified) : -2.326%
- O=C(Cc1csc(N2CCNC2=O)n1)NCC1(c2ccccc2)CC1 : 2.686%
- Cc1cc(C)n(C2CN(CC(=O)N(C)Cc3ccc(C)o3)C2)n1 : -4.843%
- CCN(C1CCN(C(=O)c2cccc(Cl)c2)CC1)S(C)(=O)=O : -2.222%
- CNC(=O)C1CCN(C(=O)c2cccn2Cc2cccs2)CC1 : 1.46%
- COC(=O)CC(NC(=O)c1cccc(N2CCCC2=O)c1)C(=O)OC (stereo unspecified) : 13.18%
- Cn1nccc1-c1ccc2nc(C3CCN(CC4CC4)CC3)nn2c1 : -3.319%
- CNC(=O)C1(CCCc2ccccn2)CN(Cc2coc(C)n2)C1 : 2.027%
- OCCC1CN(c2ncnc3[nH]cnc23)CCN1Cc1ccccc1F (stereo unspecified) : -2.187%
- Cc1nc(C)c(CCNC(=O)NC2CC(=O)N(C(C)(C)C)C2)s1 (stereo unspecified) : -3.402%
- O=C1Nc2ccccc2C12CCN(Cc1cccs1)CC2 : 1.649%
- CC(C)C1CCC(N2CCN(CCCS(C)(=O)=O)CC2)CC1 (stereo unspecified) : 1.581%
- N#CC1(c2ccccc2)CCN(C(=O)C2CCCN(C(N)=O)C2)CC1 (stereo unspecified) : 3.961%
- Nc1cc(O)nc(CCNC(=O)CC[C@@H]2CCCN3CCCC[C@H]23)n1 : -5.728%
- O=C(NC1CC1)N1Cc2[nH]nc(COc3cccnc3)c2C1 : 3.627%
- CNC(=O)[C@@H]1C[C@H](N)CN1Cc1cc2cc(OC)ccc2nc1O : -1.601%
- CN1CCC2(CCN(c3ncc(F)cn3)CC2)C1=O : 10.82%
- O=C(c1ccncc1)N1CCc2onc(CN3CCCC3)c2C1 : 18.53%
- CCCc1csc(-c2ccc(S(C)(=O)=O)cc2)n1 : -11.89%
- Cc1nc(C2CCCN2C(=O)CCc2ccc(F)cc2)ncc1C(N)=O (stereo unspecified) : -4.718%
- Cc1nn(Cn2ccc(C(=O)N3CCCC(C)C3)n2)c(C)c1Cl (stereo unspecified) : 25.75%
- O=c1[nH]nc(CNc2ncc(Cl)cn2)[nH]1 : -4.824%
- O=C(c1cccnc1)N1CC[C@H](OCC2CC2)[C@@H]1Cc1cccnc1 : 2.806%
- CN1C[C@@H](NC(=O)C(C)(C)C)C[C@H]1C(=O)NCc1ncc[nH]1 : -20.93%
- COc1c(C)cnc(CN2CCCC2c2noc(C3CC3)n2)c1C (stereo unspecified) : 8.339%
- O=C(NCC1CC2(CO1)CN(Cc1cccs1)C2)C1CCC1 (stereo unspecified) : -8.844%
- CCOCC(=O)N1CCOCC2(CCN(c3ncccn3)C2)C1 (stereo unspecified) : -12.21%
- COc1nn(C)c2c1CCCN(C(=O)c1cccc(C)n1)C2 : 17.34%

The first 5 entries again:

{"smiles": "COCC1(NC(=O)C(c2ccc(F)cc2)N(C)C)CCCC1", "stereo": "stereo unspecified", "effect": 11.76}
{"smiles": "CCCN1CCC(Nc2cc(-c3ccccc3)ccc2OC)CC1", "effect": -14.1}
{"smiles": "CCc1[nH]ncc1C(=O)N1CCCN(Cc2cnn(C(C)C)c2)CC1", "effect": 24.47}
{"smiles": "O=C1CO[C@@H]2CN(C3CCOCC3)C[C@H]2N1Cc1ccncc1", "effect": -6.269}
{"smiles": "CCn1nc(CC(C)C)cc1C(=O)N1C[C@H](O)[C@@H](N2CCCCC2)C1", "effect": 2.373}